Results as given in PMC5103071.
These are yes or no findings as the source states them, for the method shown. In cells and extracts the contact can be indirect. Some results given as binding are weak or reduced against the parent protein; the word gives no strength. Sequences can lack the tags named with a protein.

T1: FLAG–gephyrin (rat) (UniProt Q03555)
T1 sequence: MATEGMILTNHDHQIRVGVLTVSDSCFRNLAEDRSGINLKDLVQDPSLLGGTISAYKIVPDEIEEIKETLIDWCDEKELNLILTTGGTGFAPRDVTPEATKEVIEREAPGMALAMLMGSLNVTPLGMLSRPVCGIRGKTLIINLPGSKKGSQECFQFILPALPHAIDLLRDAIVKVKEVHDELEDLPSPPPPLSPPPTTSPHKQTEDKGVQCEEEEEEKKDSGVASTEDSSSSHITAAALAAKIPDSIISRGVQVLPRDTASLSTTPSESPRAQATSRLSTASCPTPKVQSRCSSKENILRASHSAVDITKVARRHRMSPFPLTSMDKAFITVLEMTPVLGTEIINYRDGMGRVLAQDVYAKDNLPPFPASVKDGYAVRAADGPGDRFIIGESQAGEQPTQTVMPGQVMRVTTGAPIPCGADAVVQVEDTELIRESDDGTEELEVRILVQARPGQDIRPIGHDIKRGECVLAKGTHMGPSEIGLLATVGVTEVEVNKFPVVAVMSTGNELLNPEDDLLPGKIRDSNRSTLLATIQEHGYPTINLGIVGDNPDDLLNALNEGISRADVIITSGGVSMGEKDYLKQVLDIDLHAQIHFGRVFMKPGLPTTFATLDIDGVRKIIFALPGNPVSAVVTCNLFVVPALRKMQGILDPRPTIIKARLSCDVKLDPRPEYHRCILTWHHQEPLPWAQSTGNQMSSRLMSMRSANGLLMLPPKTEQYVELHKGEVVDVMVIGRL

T2: myc–PIAS3 (UniProt Q9Y6X2)
T2 sequence: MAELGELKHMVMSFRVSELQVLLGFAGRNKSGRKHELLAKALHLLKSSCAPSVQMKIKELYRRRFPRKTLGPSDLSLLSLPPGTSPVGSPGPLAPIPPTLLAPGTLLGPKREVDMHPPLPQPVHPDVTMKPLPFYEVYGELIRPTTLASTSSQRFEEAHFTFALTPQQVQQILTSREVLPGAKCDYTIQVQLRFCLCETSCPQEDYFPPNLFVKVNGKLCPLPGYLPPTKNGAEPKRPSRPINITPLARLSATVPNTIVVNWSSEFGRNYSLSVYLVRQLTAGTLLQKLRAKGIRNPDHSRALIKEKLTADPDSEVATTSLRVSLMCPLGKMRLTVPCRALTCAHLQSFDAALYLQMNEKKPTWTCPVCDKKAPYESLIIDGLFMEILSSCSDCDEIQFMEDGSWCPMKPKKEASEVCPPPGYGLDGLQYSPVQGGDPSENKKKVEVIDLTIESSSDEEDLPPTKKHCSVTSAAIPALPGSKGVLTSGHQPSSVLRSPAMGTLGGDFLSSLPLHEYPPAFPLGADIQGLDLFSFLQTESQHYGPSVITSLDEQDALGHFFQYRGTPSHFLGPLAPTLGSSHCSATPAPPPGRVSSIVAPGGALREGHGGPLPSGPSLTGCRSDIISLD


Columns and labels:
FLAG–gephyrin (rat) = molecular target: T1, FLAG–gephyrin (rat); assay: co-IP; FLAG–gephyrin and myc–PIAS co-expressed in HEK293 cells; IP with anti-FLAG antibody, WB for myc; protein G agarose, washes in high-salt buffer and EBC buffer (50 mM Tris pH 8.0, 120 mM NaCl, 0.5% NP-40)
myc–PIAS3 = molecular target: T2, myc–PIAS3; assay: co-IP; myc–PIAS3 and FLAG–gephyrin (WT or phospho-site mutants) co-transfected in HEK293 cells; IP for myc–PIAS3, WB against FLAG; protein G agarose, washes in high-salt buffer and EBC buffer

| Binder | binding (FLAG–gephyrin (rat)) | binding (myc–PIAS3) |
| --- | --- | --- |
| myc–PIAS3 (protein, UniProt Q9Y6X2 1-628) MAELGELKHMVMSFRVSELQVLLGFAGRNKSGRKHELLAKALHLLKSSCAPSVQMKIKELYRRRFPRKTLGPSDLSLLSLPPGTSPVGSPGPLAPIPPTLLAPGTLLGPKREVDMHPPLPQPVHPDVTMKPLPFYEVYGELIRPTTLASTSSQRFEEAHFTFALTPQQVQQILTSREVLPGAKCDYTIQVQLRFCLCETSCPQEDYFPPNLFVKVNGKLCPLPGYLPPTKNGAEPKRPSRPINITPLARLSATVPNTIVVNWSSEFGRNYSLSVYLVRQLTAGTLLQKLRAKGIRNPDHSRALIKEKLTADPDSEVATTSLRVSLMCPLGKMRLTVPCRALTCAHLQSFDAALYLQMNEKKPTWTCPVCDKKAPYESLIIDGLFMEILSSCSDCDEIQFMEDGSWCPMKPKKEASEVCPPPGYGLDGLQYSPVQGGDPSENKKKVEVIDLTIESSSDEEDLPPTKKHCSVTSAAIPALPGSKGVLTSGHQPSSVLRSPAMGTLGGDFLSSLPLHEYPPAFPLGADIQGLDLFSFLQTESQHYGPSVITSLDEQDALGHFFQYRGTPSHFLGPLAPTLGSSHCSATPAPPPGRVSSIVAPGGALREGHGGPLPSGPSLTGCRSDIISLD | binds | – |
| FLAG–gephyrin (protein, UniProt Q03555-6 1-736) MATEGMILTNHDHQIRVGVLTVSDSCFRNLAEDRSGINLKDLVQDPSLLGGTISAYKIVPDEIEEIKETLIDWCDEKELNLILTTGGTGFAPRDVTPEATKEVIEREAPGMALAMLMGSLNVTPLGMLSRPVCGIRGKTLIINLPGSKKGSQECFQFILPALPHAIDLLRDAIVKVKEVHDELEDLPSPPPPLSPPPTTSPHKQTEDKGVQCEEEEEEKKDSGVASTEDSSSSHITAAALAAKIPDSIISRGVQVLPRDTASLSTTPSESPRAQATSRLSTASCPTPKVQSRCSSKENILRASHSAVDITKVARRHRMSPFPLTSMDKAFITVLEMTPVLGTEIINYRDGMGRVLAQDVYAKDNLPPFPASVKDGYAVRAADGPGDRFIIGESQAGEQPTQTVMPGQVMRVTTGAPIPCGADAVVQVEDTELIRESDDGTEELEVRILVQARPGQDIRPIGHDIKRGECVLAKGTHMGPSEIGLLATVGVTEVEVNKFPVVAVMSTGNELLNPEDDLLPGKIRDSNRSTLLATIQEHGYPTINLGIVGDNPDDLLNALNEGISRADVIITSGGVSMGEKDYLKQVLDIDLHAQIHFGRVFMKPGLPTTFATLDIDGVRKIIFALPGNPVSAVVTCNLFVVPALRKMQGILDPRPTIIKARLSCDVKLDPRPEYHRCILTWHHQEPLPWAQSTGNQMSSRLMSMRSANGLLMLPPKTEQYVELHKGEVVDVMVIGRL | – | binds |
| FLAG–S268A (protein, UniProt Q03555-6 1-736) MATEGMILTNHDHQIRVGVLTVSDSCFRNLAEDRSGINLKDLVQDPSLLGGTISAYKIVPDEIEEIKETLIDWCDEKELNLILTTGGTGFAPRDVTPEATKEVIEREAPGMALAMLMGSLNVTPLGMLSRPVCGIRGKTLIINLPGSKKGSQECFQFILPALPHAIDLLRDAIVKVKEVHDELEDLPSPPPPLSPPPTTSPHKQTEDKGVQCEEEEEEKKDSGVASTEDSSSSHITAAALAAKIPDSIISRGVQVLPRDTASLSTTPAESPRAQATSRLSTASCPTPKVQSRCSSKENILRASHSAVDITKVARRHRMSPFPLTSMDKAFITVLEMTPVLGTEIINYRDGMGRVLAQDVYAKDNLPPFPASVKDGYAVRAADGPGDRFIIGESQAGEQPTQTVMPGQVMRVTTGAPIPCGADAVVQVEDTELIRESDDGTEELEVRILVQARPGQDIRPIGHDIKRGECVLAKGTHMGPSEIGLLATVGVTEVEVNKFPVVAVMSTGNELLNPEDDLLPGKIRDSNRSTLLATIQEHGYPTINLGIVGDNPDDLLNALNEGISRADVIITSGGVSMGEKDYLKQVLDIDLHAQIHFGRVFMKPGLPTTFATLDIDGVRKIIFALPGNPVSAVVTCNLFVVPALRKMQGILDPRPTIIKARLSCDVKLDPRPEYHRCILTWHHQEPLPWAQSTGNQMSSRLMSMRSANGLLMLPPKTEQYVELHKGEVVDVMVIGRL | – | binds |
| FLAG–S270A (protein, UniProt Q03555-6 1-736) MATEGMILTNHDHQIRVGVLTVSDSCFRNLAEDRSGINLKDLVQDPSLLGGTISAYKIVPDEIEEIKETLIDWCDEKELNLILTTGGTGFAPRDVTPEATKEVIEREAPGMALAMLMGSLNVTPLGMLSRPVCGIRGKTLIINLPGSKKGSQECFQFILPALPHAIDLLRDAIVKVKEVHDELEDLPSPPPPLSPPPTTSPHKQTEDKGVQCEEEEEEKKDSGVASTEDSSSSHITAAALAAKIPDSIISRGVQVLPRDTASLSTTPSEAPRAQATSRLSTASCPTPKVQSRCSSKENILRASHSAVDITKVARRHRMSPFPLTSMDKAFITVLEMTPVLGTEIINYRDGMGRVLAQDVYAKDNLPPFPASVKDGYAVRAADGPGDRFIIGESQAGEQPTQTVMPGQVMRVTTGAPIPCGADAVVQVEDTELIRESDDGTEELEVRILVQARPGQDIRPIGHDIKRGECVLAKGTHMGPSEIGLLATVGVTEVEVNKFPVVAVMSTGNELLNPEDDLLPGKIRDSNRSTLLATIQEHGYPTINLGIVGDNPDDLLNALNEGISRADVIITSGGVSMGEKDYLKQVLDIDLHAQIHFGRVFMKPGLPTTFATLDIDGVRKIIFALPGNPVSAVVTCNLFVVPALRKMQGILDPRPTIIKARLSCDVKLDPRPEYHRCILTWHHQEPLPWAQSTGNQMSSRLMSMRSANGLLMLPPKTEQYVELHKGEVVDVMVIGRL | – | binds |
| FLAG–S270E (protein, UniProt Q03555-6 1-736) MATEGMILTNHDHQIRVGVLTVSDSCFRNLAEDRSGINLKDLVQDPSLLGGTISAYKIVPDEIEEIKETLIDWCDEKELNLILTTGGTGFAPRDVTPEATKEVIEREAPGMALAMLMGSLNVTPLGMLSRPVCGIRGKTLIINLPGSKKGSQECFQFILPALPHAIDLLRDAIVKVKEVHDELEDLPSPPPPLSPPPTTSPHKQTEDKGVQCEEEEEEKKDSGVASTEDSSSSHITAAALAAKIPDSIISRGVQVLPRDTASLSTTPSEEPRAQATSRLSTASCPTPKVQSRCSSKENILRASHSAVDITKVARRHRMSPFPLTSMDKAFITVLEMTPVLGTEIINYRDGMGRVLAQDVYAKDNLPPFPASVKDGYAVRAADGPGDRFIIGESQAGEQPTQTVMPGQVMRVTTGAPIPCGADAVVQVEDTELIRESDDGTEELEVRILVQARPGQDIRPIGHDIKRGECVLAKGTHMGPSEIGLLATVGVTEVEVNKFPVVAVMSTGNELLNPEDDLLPGKIRDSNRSTLLATIQEHGYPTINLGIVGDNPDDLLNALNEGISRADVIITSGGVSMGEKDYLKQVLDIDLHAQIHFGRVFMKPGLPTTFATLDIDGVRKIIFALPGNPVSAVVTCNLFVVPALRKMQGILDPRPTIIKARLSCDVKLDPRPEYHRCILTWHHQEPLPWAQSTGNQMSSRLMSMRSANGLLMLPPKTEQYVELHKGEVVDVMVIGRL | – | binds |
